The list is a part of this screen's results and no random one: it gathers tests that were run many times, whatever their T/C, doses with no T/C, and many T/C values between a quarter and a half above the control. Further doses and runs are listed elsewhere. T/C gives the treated animals as a percentage of the vehicle group. Some doses have a count of surviving animals in place of a T/C: the source files T/C as zero there, which appears to mark a toxic dose or a test without result, not a measured value. Some survivor counts are full or nearly so, which does not show that the dose was tolerated: survival well below the control is almost never listed, so the zero probably covers shortened survival too. Counts of survivors are from the toxicity check (mostly the fifth day) where no day follows; animals may have died later. Schedule codes are those of the source, taken here to give the interval after Q, in days (D) or hours (H), and the number of doses after X. Some doses were run more than once; their values stand side by side, smallest first. For survival time, the PubChem record calls one and a half times the control and up active, and a quarter to a half above the control has no call in these data; cut-offs in other NCI protocols can differ. Additions like (4×) stand for listed records that agree.
System: P388 leukemia ip, CD2F1 mice, survival T/C
Experiment: NCI In Vivo Anticancer Drug Screen. Data for tumor model P388 Leukemia (intraperitoneal) in CD2F1 (CDF1) mice
Settings: T/C endpoint: median survival time, higher T/C = longer survival
[1] = dose: 200.0 mg/kg/injection, schedule: Q01DX009 (ip), vehicle: Klucel (hydroxypropylcellulose) (HPC)
[2] = dose: 200.0 mg/kg/injection, schedule: Q01DX009 (ip), vehicle: saline
[3] = dose: 100.0 mg/kg/injection, schedule: Q01DX009 (ip), vehicle: Klucel (hydroxypropylcellulose) (HPC)
[4] = dose: 120.0 mg/kg/injection, schedule: Q01DX005 (ip), vehicle: saline with Tween-80
[5] = dose: 240.0 mg/kg/injection, schedule: Q01DX005 (ip), vehicle: saline with Tween-80

CCSc1ccc2c(cc1=O)C(N)CCc1cc(OC)c(OC)c(OC)c1-2 (stereo unspecified)
survivor count [1]: 6 of 6

COc1cc(C)c(C)cc1C1(c2cc(C)c(C)cc2O)C(=O)c2ccccc2C1=O
survivor count [2]: 5 of 6

Cc1cc(NS(=O)(=O)c2ccc(N)cc2)no1.[Ag]
survivor count (dose: 50.0 mg/kg/injection, schedule: Q01DX009 (ip), vehicle: Klucel (hydroxypropylcellulose) (HPC)): 1 of 6 | survivor count [3]: 0 of 6 | survivor count [1]: 0 of 6

Fc1ccc(F)c(C(Nc2nncs2)Nc2nncs2)c1
T/C [4]: 126 % of control (2×)

CCCCS(=O)CC(CO)NC(=O)/C=C/c1c(C)[nH]c(=O)[nH]c1=O (stereo unspecified)
T/C (dose: 1.2 mg/kg/injection, schedule: Q01DX009 (ip), vehicle: water): 149 % of control | T/C (dose: 1.25 mg/kg/injection, schedule: Q01DX009 (ip), vehicle: water): 139 % of control | T/C (dose: 2.4 mg/kg/injection, schedule: Q01DX009 (ip), vehicle: water): 149 % of control | T/C (dose: 2.5 mg/kg/injection, schedule: Q01DX009 (ip), vehicle: water): 148 % of control | survivor count (dose: 10.0 mg/kg/injection, schedule: Q01DX009 (ip), vehicle: water): 3 of 6

Cc1ncn(-c2ccccc2)c(=O)c1N=Cc1ccccc1
survivor count [5]: 4 of 6

CCCCNc1c(OC)ccc2c(C)c3[n+](cc12)CCc1cc(OC)c(OC)cc1-3
survivor count (dose: 50.0 mg/kg/injection, schedule: Q04DX003 (ip), vehicle: water): 0 of 3 | survivor count (dose: 100.0 mg/kg/injection, schedule: Q04DX003 (ip), vehicle: water): 0 of 3 | survivor count (dose: 200.0 mg/kg/injection, schedule: Q04DX003 (ip), vehicle: water): 0 of 3 | survivor count (dose: 400.0 mg/kg/injection, schedule: Q04DX003 (ip), vehicle: water): 0 of 3

O=C1N=CC2(N=N2)C(=O)N1
T/C (dose: 1.87 mg/kg/injection, schedule: Q01DX005 (ip), vehicle: saline with Tween-80): 149 % of control | survivor count (dose: 30.0 mg/kg/injection, schedule: Q01DX005 (ip), vehicle: saline with Tween-80): 0 of 6 | survivor count (dose: 60.0 mg/kg/injection, schedule: Q01DX005 (ip), vehicle: saline with Tween-80): 0 of 6 | survivor count [4]: 0 of 6 | survivor count [5]: 0 of 6

O=C(O)c1ccccc1.[Eu]
survivor count [3]: 6 of 6

COc1ccc2c3c([nH]c2c1)C(C)=NCC3
survivor count (dose: 200.0 mg/kg/injection, schedule: Q01DX005 (ip), vehicle: saline): 0 of 6

COC(=O)c1cc2cc3c(c(O)c2c(=O)o1)OC1(Cc2c(O)c4c(c(O)c2O1)C(=O)C(OC)CC4=O)CC3O (stereo unspecified)
survivor count (dose: 100.0 mg/kg/injection, schedule: Q01DX009 (ip), vehicle: saline with Tween-80): 4 of 6 and 6 of 6 | survivor count (dose: 200.0 mg/kg/injection, schedule: Q01DX009 (ip), vehicle: saline with Tween-80): 5 of 6 | survivor count (dose: 400.0 mg/kg/injection, schedule: Q01DX009 (ip), vehicle: saline with Tween-80): 2 of 6

CCn1c2nc(=O)[nH]c(=O)c-2[n+]([O-])c2ccccc21
survivor count (dose: 100.0 mg/kg/injection, schedule: Q01DX001 (ip), vehicle: saline with Tween-80): 0 of 6 | survivor count (dose: 200.0 mg/kg/injection, schedule: Q01DX001 (ip), vehicle: saline with Tween-80): 0 of 6 | survivor count (dose: 400.0 mg/kg/injection, schedule: Q01DX001 (ip), vehicle: saline with Tween-80): 0 of 6

O=CNC(Cc1ccc(N(CCCl)CCCl)cc1)C(=O)O (stereo unspecified)
T/C (dose: 4.4 mg/kg/injection, schedule: Q04DX003 (ip), vehicle: saline): 140 % of control

Clc1cncc(N2CCNCC2)n1
survivor count [3]: 0 of 6 | survivor count [1]: 0 of 6

C[N+](c1ccc(Cl)cc1)=S(C)(C)=O
survivor count (dose: 50.0 mg/kg/injection, schedule: Q01DX009 (ip), vehicle: saline): 3 of 6 | survivor count (dose: 100.0 mg/kg/injection, schedule: Q01DX009 (ip), vehicle: saline): 0 of 6 | survivor count [2]: 0 of 6

N=C(N)Sc1cc(O)ccc1O
survivor count (dose: 300.0 mg/kg/injection, schedule: Q01DX009 (ip), vehicle: saline with Tween-80): 6 of 6
